{"source": "paper PMC3475717", "about": "“A Spiroligomer α-Helix Mimic That Binds HDM2, Penetrates Human Cells and Stabilizes HDM2 in Cell Culture” (PLoS ONE, 2012)", "system": "HDM2 and wt-p53 in HepG2 cells", "assay": "time dependent Western analysis of HDM2 and wt-p53", "assay_type": "cell-based, human", "settings": "HepG2, 15 µM, at 4–8 hours, average", "description": "Time dependent Western analysis of the effect of spiroligomer 1 on the levels of HDM2 and wt-p53 in HepG2 cells were also carried out. In HepG2 cells the HDM2 levels increased on average 2-fold at 4–8 hours after introduction of compound 1 and then decreased after that (Figure 11B&C). The wt-p53 increased on average about 2–3 fold at 6–12 hours and then decreased after that (Figure 11B&D). This is in contrast to the well-known effect of Nutlin-3 observed in many cell lines in which the level of wt-p53 increases in a dose-dependent manner with a concomitant increase in the levels of HDM2 (Figure 11B), [34]. In HepG2 cells, the HDM2 stabilization of compound 1 seen in Huh7 cells is possibly muted by the negative feedback loop of p53 and HDM2. The weak, transient stabilization of p53 in HepG2 cells by compound 1 may be due to its dissociation constant with HDM2 (400 nM) being on par with the affinity of p53 for HDM2.\nTable S.7. Parameters used for the non-linear fit for the plot of the competition binding experiment.\nCell Culture and Treatment. […]\nFluorescence and Confocal Microscopy. Fluorescence and confocal microscopy were applied to live and fixed cells. […] Fluorescent specimens were analyzed using an ECLIPSE Ti microscope (Nikon), lenses with hardened […]\nWestern Blotting. […] Images were quantified using ImageJ software (NIH). […]", "note": "“Also recorded” adds a separate entry of the source. For part of its entries the source gives two or more results. This list holds those alone. The source may hold further records. Results that share an entry differ, and nothing given here explains why; some may be repeats, others may stem from another dose, organism or construct than stated.", "data": [{"smiles": "CC(C)CN1C(=O)[C@@H]2C[C@@]3(CN2C(=O)[C@@]12C[C@H]1C(=O)N(Cc4ccc(Cl)c(Cl)c4)[C@]4(C[C@@H]5C(=O)N[C@@H](CCc6ccccc6)C(=O)N5C4)C(=O)N1C2)NC(=O)[C@@H](CCCCNC(=S)Nc1ccc2c(c1)C(=O)OC21c2ccc(O)cc2Oc2cc(O)ccc21)NC3=O", "note": "[Compound 1]", "values": [{"measurement": "HDM2 levels relative to control", "value": "transient increase in HDM2 levels at 4 hours followed by a decrease; also recorded: 2 fold"}]}]}
